One assay deals with T1, Klp6-GFP (S. pombe) (UniProt O59751).
T1 sequence: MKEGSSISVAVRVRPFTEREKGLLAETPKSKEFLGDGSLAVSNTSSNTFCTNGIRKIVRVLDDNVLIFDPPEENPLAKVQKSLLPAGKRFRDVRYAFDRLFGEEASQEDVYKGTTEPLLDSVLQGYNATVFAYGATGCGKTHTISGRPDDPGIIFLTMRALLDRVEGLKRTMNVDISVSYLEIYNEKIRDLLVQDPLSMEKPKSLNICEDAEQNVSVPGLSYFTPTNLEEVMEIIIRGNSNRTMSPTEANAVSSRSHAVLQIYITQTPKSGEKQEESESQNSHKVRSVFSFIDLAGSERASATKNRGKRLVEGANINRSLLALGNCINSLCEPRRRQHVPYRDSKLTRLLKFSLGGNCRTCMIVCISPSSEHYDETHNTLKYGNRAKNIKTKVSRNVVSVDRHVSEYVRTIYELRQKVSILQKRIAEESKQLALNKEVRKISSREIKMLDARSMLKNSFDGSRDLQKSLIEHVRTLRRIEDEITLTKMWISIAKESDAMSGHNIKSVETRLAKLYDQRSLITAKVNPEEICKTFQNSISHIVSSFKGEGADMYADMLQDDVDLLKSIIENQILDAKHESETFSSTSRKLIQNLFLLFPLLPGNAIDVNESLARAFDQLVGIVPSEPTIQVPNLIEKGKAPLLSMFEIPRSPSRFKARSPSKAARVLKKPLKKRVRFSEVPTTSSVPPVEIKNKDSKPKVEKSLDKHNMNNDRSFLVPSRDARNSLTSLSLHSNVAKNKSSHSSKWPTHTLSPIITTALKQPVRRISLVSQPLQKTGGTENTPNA
Description: co-IP; Klp6-GFP precipitated with magnetic GFP-trap from 2.8 mg S. pombe whole cell extract, 1.5 h at 4°C, IP buffer (50 mM Tris-HCl pH 7.4, 1 mM EDTA, 150 mM NaCl, 0.05% NP-40, 10% glycerol); blot with anti-FLAG and anti-GFP.

Assay [1] addresses T2, Klp5-HA (recombinant, full length) (S. pombe) (UniProt O14343).
T2 sequence: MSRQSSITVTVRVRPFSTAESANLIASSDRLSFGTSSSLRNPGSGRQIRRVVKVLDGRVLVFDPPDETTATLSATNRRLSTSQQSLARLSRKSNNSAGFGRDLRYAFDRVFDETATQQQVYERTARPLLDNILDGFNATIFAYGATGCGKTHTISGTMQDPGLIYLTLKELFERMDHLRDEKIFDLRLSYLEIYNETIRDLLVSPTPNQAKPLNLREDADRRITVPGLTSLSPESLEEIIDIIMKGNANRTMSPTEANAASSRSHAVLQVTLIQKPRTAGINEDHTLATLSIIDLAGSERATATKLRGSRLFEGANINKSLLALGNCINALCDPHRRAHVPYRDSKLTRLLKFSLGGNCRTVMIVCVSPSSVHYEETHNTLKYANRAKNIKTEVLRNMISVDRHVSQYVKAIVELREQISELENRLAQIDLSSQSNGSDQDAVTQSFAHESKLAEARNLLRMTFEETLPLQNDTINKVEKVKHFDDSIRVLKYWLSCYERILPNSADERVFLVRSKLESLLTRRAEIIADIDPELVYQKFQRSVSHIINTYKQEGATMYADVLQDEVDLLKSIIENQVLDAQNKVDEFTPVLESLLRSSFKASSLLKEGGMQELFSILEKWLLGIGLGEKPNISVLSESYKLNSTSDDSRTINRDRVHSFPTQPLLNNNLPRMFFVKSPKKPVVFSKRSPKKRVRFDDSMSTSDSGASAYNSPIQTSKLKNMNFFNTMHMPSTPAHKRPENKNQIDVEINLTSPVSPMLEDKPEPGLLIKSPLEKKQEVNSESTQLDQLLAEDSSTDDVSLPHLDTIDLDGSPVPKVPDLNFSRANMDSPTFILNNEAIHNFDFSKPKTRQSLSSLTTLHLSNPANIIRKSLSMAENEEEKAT
Description: SEC; co-expressed in E. coli; complex held on IgG Sepharose by protein A on Klp5, cut off with PreScission protease, then Superose-6 gel filtration in LEW buffer (50 mM HEPES pH 7.5, 300 mM KCl) at 4°C. (In general: In gel filtration, larger molecules generally elute earlier.)

These are yes or no findings as the source states them, for the method shown. For some assays here: In cells and extracts the contact can be indirect. Some entries that bind do so weakly or less than the wild type. Tags and fused reporters may be left off the sequences shown.

B1: Klp5-5FLAG (wild type) (protein, UniProt O14343 1-883)
chain: MSRQSSITVTVRVRPFSTAESANLIASSDRLSFGTSSSLRNPGSGRQIRRVVKVLDGRVLVFDPPDETTATLSATNRRLSTSQQSLARLSRKSNNSAGFGRDLRYAFDRVFDETATQQQVYERTARPLLDNILDGFNATIFAYGATGCGKTHTISGTMQDPGLIYLTLKELFERMDHLRDEKIFDLRLSYLEIYNETIRDLLVSPTPNQAKPLNLREDADRRITVPGLTSLSPESLEEIIDIIMKGNANRTMSPTEANAASSRSHAVLQVTLIQKPRTAGINEDHTLATLSIIDLAGSERATATKLRGSRLFEGANINKSLLALGNCINALCDPHRRAHVPYRDSKLTRLLKFSLGGNCRTVMIVCVSPSSVHYEETHNTLKYANRAKNIKTEVLRNMISVDRHVSQYVKAIVELREQISELENRLAQIDLSSQSNGSDQDAVTQSFAHESKLAEARNLLRMTFEETLPLQNDTINKVEKVKHFDDSIRVLKYWLSCYERILPNSADERVFLVRSKLESLLTRRAEIIADIDPELVYQKFQRSVSHIINTYKQEGATMYADVLQDEVDLLKSIIENQVLDAQNKVDEFTPVLESLLRSSFKASSLLKEGGMQELFSILEKWLLGIGLGEKPNISVLSESYKLNSTSDDSRTINRDRVHSFPTQPLLNNNLPRMFFVKSPKKPVVFSKRSPKKRVRFDDSMSTSDSGASAYNSPIQTSKLKNMNFFNTMHMPSTPAHKRPENKNQIDVEINLTSPVSPMLEDKPEPGLLIKSPLEKKQEVNSESTQLDQLLAEDSSTDDVSLPHLDTIDLDGSPVPKVPDLNFSRANMDSPTFILNNEAIHNFDFSKPKTRQSLSSLTTLHLSNPANIIRKSLSMAENEEEKAT
Regarding B1, in the assay with Klp6-GFP (S. pombe), the binding result is listed as “binds”.

B2: Klp6-msfGFP (recombinant, full length) (protein, UniProt O59751 1-784)
chain: MKEGSSISVAVRVRPFTEREKGLLAETPKSKEFLGDGSLAVSNTSSNTFCTNGIRKIVRVLDDNVLIFDPPEENPLAKVQKSLLPAGKRFRDVRYAFDRLFGEEASQEDVYKGTTEPLLDSVLQGYNATVFAYGATGCGKTHTISGRPDDPGIIFLTMRALLDRVEGLKRTMNVDISVSYLEIYNEKIRDLLVQDPLSMEKPKSLNICEDAEQNVSVPGLSYFTPTNLEEVMEIIIRGNSNRTMSPTEANAVSSRSHAVLQIYITQTPKSGEKQEESESQNSHKVRSVFSFIDLAGSERASATKNRGKRLVEGANINRSLLALGNCINSLCEPRRRQHVPYRDSKLTRLLKFSLGGNCRTCMIVCISPSSEHYDETHNTLKYGNRAKNIKTKVSRNVVSVDRHVSEYVRTIYELRQKVSILQKRIAEESKQLALNKEVRKISSREIKMLDARSMLKNSFDGSRDLQKSLIEHVRTLRRIEDEITLTKMWISIAKESDAMSGHNIKSVETRLAKLYDQRSLITAKVNPEEICKTFQNSISHIVSSFKGEGADMYADMLQDDVDLLKSIIENQILDAKHESETFSSTSRKLIQNLFLLFPLLPGNAIDVNESLARAFDQLVGIVPSEPTIQVPNLIEKGKAPLLSMFEIPRSPSRFKARSPSKAARVLKKPLKKRVRFSEVPTTSSVPPVEIKNKDSKPKVEKSLDKHNMNNDRSFLVPSRDARNSLTSLSLHSNVAKNKSSHSSKWPTHTLSPIITTALKQPVRRISLVSQPLQKTGGTENTPNA
As for B2, in assay [1], the binding entry was “binds”.
